Experimental data: article PMC11528048
Results are given in words; binding and its absence hold for the method and conditions named. Some entries that bind do so weakly or less than the wild type.

T1: KKE/D domain of Nop58 (Nop58(451-511)) (S. cerevisiae) (UniProt Q12499)
T1 sequence: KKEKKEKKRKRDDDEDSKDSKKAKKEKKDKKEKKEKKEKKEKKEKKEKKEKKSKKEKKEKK

T2: KKE/D repeats of Cbf5 (Cbf5(433-483)) (S. cerevisiae) (UniProt P33322)
T2 sequence: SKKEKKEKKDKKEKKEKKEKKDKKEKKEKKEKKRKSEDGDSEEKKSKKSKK

T3: KKE/D repeats of Pxr1 (Pxr1(172-213)) (S. cerevisiae) (UniProt P53335)
T3 sequence: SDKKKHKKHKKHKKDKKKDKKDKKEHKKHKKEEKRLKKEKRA

T4: KKE/D domain of Nop56 (Nop56(441-504)) (S. cerevisiae) (UniProt Q12460)
T4 sequence: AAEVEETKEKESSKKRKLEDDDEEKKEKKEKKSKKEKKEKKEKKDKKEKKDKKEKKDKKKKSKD

T5: KKE/D domain of Rpa34 (Rpa34(183-233)) (S. cerevisiae) (UniProt P47006)
T5 sequence: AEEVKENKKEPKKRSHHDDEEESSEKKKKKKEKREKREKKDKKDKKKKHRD

T6: Nop56 (S. cerevisiae) (UniProt Q12460)
T6 sequence: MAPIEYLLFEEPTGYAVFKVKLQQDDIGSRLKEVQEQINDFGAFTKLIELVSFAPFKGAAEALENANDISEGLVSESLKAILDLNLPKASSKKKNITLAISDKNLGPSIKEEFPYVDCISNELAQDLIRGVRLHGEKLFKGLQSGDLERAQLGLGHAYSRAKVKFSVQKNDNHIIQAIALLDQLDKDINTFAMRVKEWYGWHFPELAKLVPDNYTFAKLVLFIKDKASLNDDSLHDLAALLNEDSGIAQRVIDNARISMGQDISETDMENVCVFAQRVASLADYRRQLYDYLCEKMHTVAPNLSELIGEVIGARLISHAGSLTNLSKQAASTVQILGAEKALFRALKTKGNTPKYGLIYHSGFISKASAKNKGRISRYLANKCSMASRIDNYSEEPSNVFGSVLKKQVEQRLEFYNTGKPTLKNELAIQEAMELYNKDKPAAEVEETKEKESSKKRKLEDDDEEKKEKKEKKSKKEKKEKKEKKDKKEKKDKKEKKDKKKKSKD

T7: Nop58 (S. cerevisiae) (UniProt Q12499)
T7 sequence: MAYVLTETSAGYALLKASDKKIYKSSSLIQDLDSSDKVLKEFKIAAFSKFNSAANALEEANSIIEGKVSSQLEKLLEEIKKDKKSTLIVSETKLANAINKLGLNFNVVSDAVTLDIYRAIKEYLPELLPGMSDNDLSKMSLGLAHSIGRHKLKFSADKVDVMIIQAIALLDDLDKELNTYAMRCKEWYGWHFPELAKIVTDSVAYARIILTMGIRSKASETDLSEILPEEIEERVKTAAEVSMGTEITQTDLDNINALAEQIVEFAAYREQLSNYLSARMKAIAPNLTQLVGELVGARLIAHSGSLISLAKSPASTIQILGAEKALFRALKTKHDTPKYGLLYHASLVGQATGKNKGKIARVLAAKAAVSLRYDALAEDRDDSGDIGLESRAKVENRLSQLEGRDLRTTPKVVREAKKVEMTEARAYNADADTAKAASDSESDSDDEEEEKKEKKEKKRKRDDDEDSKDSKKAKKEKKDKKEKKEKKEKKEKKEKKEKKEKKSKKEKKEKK


Tests used:
Test in all cases: two-hybrid; baits fused to Gal4BD, preys fused to Gal4AD, co-transformed into reporter strain PJ69-4A; growth on SC-Trp-Leu-His (HIS3, weak/moderate) and SC-Trp-Leu-Ade (ADE2, strong), 3 days at 30 °C
[1] = biological target: T1, KKE/D domain of Nop58 (Nop58(451-511)) (S. cerevisiae)
[2] = biological target: T2, KKE/D repeats of Cbf5 (Cbf5(433-483)) (S. cerevisiae)
[3] = biological target: T3, KKE/D repeats of Pxr1 (Pxr1(172-213)) (S. cerevisiae)
[4] = biological target: T4, KKE/D domain of Nop56 (Nop56(441-504)) (S. cerevisiae)
[5] = biological target: T5, KKE/D domain of Rpa34 (Rpa34(183-233)) (S. cerevisiae)
Nop56 (S. cerevisiae) = biological target: T6, Nop56 (S. cerevisiae)
Nop58 (S. cerevisiae) = biological target: T7, Nop58 (S. cerevisiae)

Row | binding [1] | binding [2] | binding [3] | binding [4] | binding [5] | binding (Nop56 (S. cerevisiae)) | binding (Nop58 (S. cerevisiae)) | Binder
1 | binds | binds | binds | binds |  |  |  | Pxr1's isolated KKE/D domain (Pxr1(149-271)) (domain or fragment, UniProt P53335 149-271) AKKRKREGDDSEDEDDDDKEDKDSDKKKHKKHKKHKKDKKKDKKDKKEHKKHKKEEKRLKKEKRAEKTKETKKTSKLKSSESASNIPDAVNTRLSVRSKWIKQKRAALMDSKALNEIFMITND
2 |  |  |  |  | binds |  |  | SDKKKHKKHKKHKKDKKKDKKDKKEHKKHKKEEKRLKKEKRA (domain or fragment, UniProt P53335 172-213) [KKE/D repeats of Pxr1 (Pxr1(172-213))]
3 |  |  |  | binds | binds |  |  | KKE/D domain of Nop56 (Nop56(441-504)) (domain or fragment, UniProt Q12460 441-504) AAEVEETKEKESSKKRKLEDDDEEKKEKKEKKSKKEKKEKKEKKDKKEKKDKKEKKDKKKKSKD
4 | binds |  |  |  | binds |  |  | KKE/D domain of Nop58 (Nop58(451-511)) (domain or fragment, UniProt Q12499 451-511) KKEKKEKKRKRDDDEDSKDSKKAKKEKKDKKEKKEKKEKKEKKEKKEKKEKKSKKEKKEKK
5 | binds | binds | binds | binds |  | binds | binds | full-length Pxr1 (protein, UniProt P53335 1-271) MGLAATRTKQRFGLDPRNTAWSNDTSRFGHQFLEKFGWKPGMGLGLSPMNSNTSHIKVSIKDDNVGLGAKLKRKDKKDEFDNGECAGLDVFQRILGRLNGKESKISEELDTQRKQKIIDGKWGIHFVKGEVLASTWDPKTHKLRNYSNAKKRKREGDDSEDEDDDDKEDKDSDKKKHKKHKKHKKDKKKDKKDKKEHKKHKKEEKRLKKEKRAEKTKETKKTSKLKSSESASNIPDAVNTRLSVRSKWIKQKRAALMDSKALNEIFMITND
